Data as given in PubChem BioAssay AID1259254 (NCATS, 2017)
Here is an unselected part of about 59,000 reagents tested. In the full data, about 1,550 (2.6%) were called active. 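G2 share is only a proxy for re-replication; each gene was hit by three separate siRNAs, and active genes were retested.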 Reagents against one gene are numbered here. Not all columns of the deposit are shown. The record does not give: the amount of reagent.

Aim: 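Gene knock-downs that lead to re-replication, shown by excess G2 DNA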 (primary screen)
System: human HCT116 colorectal cancer cells
Reagents: single siRNA against human genes
Duration: 3 days
Detection: 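Imaged Hoechst DNA stain sorts each cell into a cycle phase by DNA amount; per plate, G2 fraction set to 0% for non-targeting and 100% for GMNN siRNA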
Reading the numbers: G2 robust z-score: higher = more G2 cells, more excess DNA replication
Rule for the call: 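Active siRNAs have a G2 robust z of 5 or more median absolute deviations over the median, which in these data means about 38% or higher of GMNN control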

Gene | reagent no. | G2 robust z-score | Outcome
RUNDC3A (GeneID 10900) | 1 | 1.14 | inactive
RUNDC3A (GeneID 10900) | 2 | -0.759 | inactive
RUNDC3A (GeneID 10900) | 3 | 1.22 | inactive
CMPK2 (GeneID 129607) | 1 | -0.341 | inactive
CMPK2 (GeneID 129607) | 2 | 5.3 | active
CMPK2 (GeneID 129607) | 3 | -0.496 | inactive
GEMIN2 (GeneID 8487) | 1 | -0.224 | inactive
GEMIN2 (GeneID 8487) | 2 | -1.18 | inactive
GEMIN2 (GeneID 8487) | 3 | 0.401 | inactive
INMT (GeneID 11185) | 1 | 0.256 | inactive
INMT (GeneID 11185) | 2 | 1.24 | inactive
INMT (GeneID 11185) | 3 | 1.47 | inactive
MYO1C (GeneID 4641) | 1 | -0.659 | inactive
MYO1C (GeneID 4641) | 2 | 1.24 | inactive
MYO1C (GeneID 4641) | 3 | -0.204 | inactive
RAPGEF4 (GeneID 11069) | 1 | 1.58 | inactive
RAPGEF4 (GeneID 11069) | 2 | -0.716 | inactive
RAPGEF4 (GeneID 11069) | 3 | -0.478 | inactive
PATL1 (GeneID 219988) | 1 | 1.04 | inactive
PATL1 (GeneID 219988) | 2 | 1.54 | inactive
PATL1 (GeneID 219988) | 3 | 1.03 | inactive
PDGFC (GeneID 56034) | 1 | -0.546 | inactive
PDGFC (GeneID 56034) | 2 | 1.65 | inactive
PDGFC (GeneID 56034) | 3 | -0.71 | inactive
DNAH8 (GeneID 1769) | 1 | -0.0724 | inactive
DNAH8 (GeneID 1769) | 2 | 7.11 | active
DNAH8 (GeneID 1769) | 3 | -0.307 | inactive
LMNTD1 (GeneID 160492) | 1 | 0.77 | inactive
LMNTD1 (GeneID 160492) | 2 | -0.755 | inactive
LMNTD1 (GeneID 160492) | 3 | 0.51 | inactive
